Measured values reported in the supplement of paper PMC10849652.
The other results are listed elsewhere or left out.

By UniProt entry, the sequences of proteins in these tests, tags left out. Where a name states a change or a piece, a line headed by the entry shows the natural chain unless it says otherwise.
UniProt P35711: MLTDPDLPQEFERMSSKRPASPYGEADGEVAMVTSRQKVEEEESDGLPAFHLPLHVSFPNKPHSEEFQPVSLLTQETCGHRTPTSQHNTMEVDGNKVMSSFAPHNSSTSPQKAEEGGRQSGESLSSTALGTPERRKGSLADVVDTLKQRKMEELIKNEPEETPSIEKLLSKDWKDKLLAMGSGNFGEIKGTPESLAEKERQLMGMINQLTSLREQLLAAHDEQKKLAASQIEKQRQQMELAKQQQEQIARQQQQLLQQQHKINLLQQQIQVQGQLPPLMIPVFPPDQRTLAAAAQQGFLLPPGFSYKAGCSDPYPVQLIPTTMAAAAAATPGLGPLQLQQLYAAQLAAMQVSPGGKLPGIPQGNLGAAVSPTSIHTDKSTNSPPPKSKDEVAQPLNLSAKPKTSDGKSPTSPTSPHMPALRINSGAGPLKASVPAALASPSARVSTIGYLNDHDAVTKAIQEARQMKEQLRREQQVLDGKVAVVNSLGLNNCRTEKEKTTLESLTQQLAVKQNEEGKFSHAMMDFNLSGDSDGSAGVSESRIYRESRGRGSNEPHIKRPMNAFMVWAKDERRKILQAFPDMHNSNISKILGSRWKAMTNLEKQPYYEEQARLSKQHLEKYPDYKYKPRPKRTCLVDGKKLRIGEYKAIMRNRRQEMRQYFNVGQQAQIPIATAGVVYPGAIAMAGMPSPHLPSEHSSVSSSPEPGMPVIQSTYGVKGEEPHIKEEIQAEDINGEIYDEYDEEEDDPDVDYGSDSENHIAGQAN
UniProt Q9NXE4: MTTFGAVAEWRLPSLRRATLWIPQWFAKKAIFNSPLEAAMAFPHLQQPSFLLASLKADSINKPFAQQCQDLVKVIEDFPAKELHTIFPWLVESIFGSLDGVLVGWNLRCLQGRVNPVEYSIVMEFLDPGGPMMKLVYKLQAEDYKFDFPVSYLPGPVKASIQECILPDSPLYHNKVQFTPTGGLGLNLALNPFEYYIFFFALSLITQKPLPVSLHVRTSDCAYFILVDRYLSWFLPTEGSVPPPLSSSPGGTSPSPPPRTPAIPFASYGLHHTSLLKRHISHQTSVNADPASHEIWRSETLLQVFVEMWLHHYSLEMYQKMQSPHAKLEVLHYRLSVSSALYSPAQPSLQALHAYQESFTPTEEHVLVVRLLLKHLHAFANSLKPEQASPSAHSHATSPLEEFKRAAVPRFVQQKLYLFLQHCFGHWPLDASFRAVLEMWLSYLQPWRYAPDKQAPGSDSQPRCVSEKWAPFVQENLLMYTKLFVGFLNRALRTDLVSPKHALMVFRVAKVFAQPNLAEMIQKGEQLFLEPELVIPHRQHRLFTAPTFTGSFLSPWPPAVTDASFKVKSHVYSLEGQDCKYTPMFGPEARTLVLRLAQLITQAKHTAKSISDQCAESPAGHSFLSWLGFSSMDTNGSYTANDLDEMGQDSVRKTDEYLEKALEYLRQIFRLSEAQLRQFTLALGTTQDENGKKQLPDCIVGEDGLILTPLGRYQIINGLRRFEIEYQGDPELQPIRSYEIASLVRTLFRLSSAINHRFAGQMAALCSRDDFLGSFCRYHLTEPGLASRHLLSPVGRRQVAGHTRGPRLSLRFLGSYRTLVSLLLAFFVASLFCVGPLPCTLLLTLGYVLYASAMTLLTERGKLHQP
UniProt O60271: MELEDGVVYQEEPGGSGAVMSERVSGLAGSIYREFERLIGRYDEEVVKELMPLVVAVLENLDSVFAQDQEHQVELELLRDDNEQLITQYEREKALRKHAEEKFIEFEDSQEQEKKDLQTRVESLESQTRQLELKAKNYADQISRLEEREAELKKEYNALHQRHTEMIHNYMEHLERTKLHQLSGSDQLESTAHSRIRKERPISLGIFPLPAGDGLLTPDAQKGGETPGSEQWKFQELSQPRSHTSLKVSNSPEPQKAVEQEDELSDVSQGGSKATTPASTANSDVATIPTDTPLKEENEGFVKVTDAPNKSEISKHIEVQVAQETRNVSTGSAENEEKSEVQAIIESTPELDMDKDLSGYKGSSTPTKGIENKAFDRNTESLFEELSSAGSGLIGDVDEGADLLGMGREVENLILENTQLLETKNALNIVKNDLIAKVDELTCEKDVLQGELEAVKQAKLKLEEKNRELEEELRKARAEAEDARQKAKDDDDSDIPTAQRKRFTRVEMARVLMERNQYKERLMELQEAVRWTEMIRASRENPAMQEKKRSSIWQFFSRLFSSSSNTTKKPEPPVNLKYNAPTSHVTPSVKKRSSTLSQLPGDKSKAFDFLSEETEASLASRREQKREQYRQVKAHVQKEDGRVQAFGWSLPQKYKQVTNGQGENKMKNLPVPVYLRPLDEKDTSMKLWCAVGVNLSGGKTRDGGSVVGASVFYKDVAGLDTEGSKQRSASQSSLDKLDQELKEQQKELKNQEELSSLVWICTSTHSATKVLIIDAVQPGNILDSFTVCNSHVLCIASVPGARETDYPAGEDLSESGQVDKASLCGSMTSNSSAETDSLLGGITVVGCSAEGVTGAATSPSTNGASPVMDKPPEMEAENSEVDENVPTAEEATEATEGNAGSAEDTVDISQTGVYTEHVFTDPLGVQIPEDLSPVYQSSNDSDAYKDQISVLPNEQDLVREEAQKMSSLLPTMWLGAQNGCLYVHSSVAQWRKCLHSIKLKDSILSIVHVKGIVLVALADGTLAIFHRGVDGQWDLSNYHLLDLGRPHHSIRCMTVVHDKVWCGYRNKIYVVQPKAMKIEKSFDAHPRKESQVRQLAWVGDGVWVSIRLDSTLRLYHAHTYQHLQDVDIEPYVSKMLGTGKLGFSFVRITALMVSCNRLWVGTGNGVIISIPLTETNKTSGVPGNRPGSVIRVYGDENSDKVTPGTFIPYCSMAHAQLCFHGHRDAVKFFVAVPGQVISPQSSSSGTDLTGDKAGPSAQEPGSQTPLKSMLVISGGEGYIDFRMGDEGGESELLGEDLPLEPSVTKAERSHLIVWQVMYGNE
UniProt Q96RF0: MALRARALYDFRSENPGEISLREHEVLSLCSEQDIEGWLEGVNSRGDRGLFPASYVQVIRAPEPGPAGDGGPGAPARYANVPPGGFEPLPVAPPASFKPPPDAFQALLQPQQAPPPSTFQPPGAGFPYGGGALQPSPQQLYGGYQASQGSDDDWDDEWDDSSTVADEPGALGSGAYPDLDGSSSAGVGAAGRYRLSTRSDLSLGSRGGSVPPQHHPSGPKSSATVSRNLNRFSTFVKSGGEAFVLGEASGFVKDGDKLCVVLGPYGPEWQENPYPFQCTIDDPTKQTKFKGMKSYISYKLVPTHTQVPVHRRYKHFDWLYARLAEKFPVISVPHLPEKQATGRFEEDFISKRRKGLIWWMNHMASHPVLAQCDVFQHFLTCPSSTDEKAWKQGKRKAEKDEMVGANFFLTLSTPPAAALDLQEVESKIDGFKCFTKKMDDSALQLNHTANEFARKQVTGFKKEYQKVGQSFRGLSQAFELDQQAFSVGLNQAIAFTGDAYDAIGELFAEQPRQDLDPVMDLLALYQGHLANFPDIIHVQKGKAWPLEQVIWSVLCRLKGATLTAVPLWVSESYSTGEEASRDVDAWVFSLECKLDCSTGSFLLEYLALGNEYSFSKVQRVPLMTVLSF
UniProt Q96E16: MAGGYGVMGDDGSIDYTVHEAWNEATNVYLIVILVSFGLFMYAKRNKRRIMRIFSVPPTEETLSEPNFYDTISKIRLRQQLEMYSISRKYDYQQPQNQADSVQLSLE
UniProt Q92581: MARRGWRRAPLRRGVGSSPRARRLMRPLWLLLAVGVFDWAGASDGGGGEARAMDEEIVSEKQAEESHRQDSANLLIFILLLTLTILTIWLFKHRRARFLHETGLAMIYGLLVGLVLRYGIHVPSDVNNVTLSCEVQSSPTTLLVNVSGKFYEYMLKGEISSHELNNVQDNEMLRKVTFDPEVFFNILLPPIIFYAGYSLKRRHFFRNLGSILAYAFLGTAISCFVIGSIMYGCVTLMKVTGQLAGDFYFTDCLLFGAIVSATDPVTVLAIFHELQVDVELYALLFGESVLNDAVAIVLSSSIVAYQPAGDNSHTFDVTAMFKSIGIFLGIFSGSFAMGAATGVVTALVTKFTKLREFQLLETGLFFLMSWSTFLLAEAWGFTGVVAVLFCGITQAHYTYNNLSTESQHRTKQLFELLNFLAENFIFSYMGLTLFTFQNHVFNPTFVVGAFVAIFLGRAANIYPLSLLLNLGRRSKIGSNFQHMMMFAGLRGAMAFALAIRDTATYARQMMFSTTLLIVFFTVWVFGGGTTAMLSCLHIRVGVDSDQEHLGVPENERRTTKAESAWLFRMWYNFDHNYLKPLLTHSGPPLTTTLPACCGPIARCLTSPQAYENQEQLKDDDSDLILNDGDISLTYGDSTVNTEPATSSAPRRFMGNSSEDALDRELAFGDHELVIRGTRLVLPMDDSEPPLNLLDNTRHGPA
UniProt P51531, whole entry, looked up: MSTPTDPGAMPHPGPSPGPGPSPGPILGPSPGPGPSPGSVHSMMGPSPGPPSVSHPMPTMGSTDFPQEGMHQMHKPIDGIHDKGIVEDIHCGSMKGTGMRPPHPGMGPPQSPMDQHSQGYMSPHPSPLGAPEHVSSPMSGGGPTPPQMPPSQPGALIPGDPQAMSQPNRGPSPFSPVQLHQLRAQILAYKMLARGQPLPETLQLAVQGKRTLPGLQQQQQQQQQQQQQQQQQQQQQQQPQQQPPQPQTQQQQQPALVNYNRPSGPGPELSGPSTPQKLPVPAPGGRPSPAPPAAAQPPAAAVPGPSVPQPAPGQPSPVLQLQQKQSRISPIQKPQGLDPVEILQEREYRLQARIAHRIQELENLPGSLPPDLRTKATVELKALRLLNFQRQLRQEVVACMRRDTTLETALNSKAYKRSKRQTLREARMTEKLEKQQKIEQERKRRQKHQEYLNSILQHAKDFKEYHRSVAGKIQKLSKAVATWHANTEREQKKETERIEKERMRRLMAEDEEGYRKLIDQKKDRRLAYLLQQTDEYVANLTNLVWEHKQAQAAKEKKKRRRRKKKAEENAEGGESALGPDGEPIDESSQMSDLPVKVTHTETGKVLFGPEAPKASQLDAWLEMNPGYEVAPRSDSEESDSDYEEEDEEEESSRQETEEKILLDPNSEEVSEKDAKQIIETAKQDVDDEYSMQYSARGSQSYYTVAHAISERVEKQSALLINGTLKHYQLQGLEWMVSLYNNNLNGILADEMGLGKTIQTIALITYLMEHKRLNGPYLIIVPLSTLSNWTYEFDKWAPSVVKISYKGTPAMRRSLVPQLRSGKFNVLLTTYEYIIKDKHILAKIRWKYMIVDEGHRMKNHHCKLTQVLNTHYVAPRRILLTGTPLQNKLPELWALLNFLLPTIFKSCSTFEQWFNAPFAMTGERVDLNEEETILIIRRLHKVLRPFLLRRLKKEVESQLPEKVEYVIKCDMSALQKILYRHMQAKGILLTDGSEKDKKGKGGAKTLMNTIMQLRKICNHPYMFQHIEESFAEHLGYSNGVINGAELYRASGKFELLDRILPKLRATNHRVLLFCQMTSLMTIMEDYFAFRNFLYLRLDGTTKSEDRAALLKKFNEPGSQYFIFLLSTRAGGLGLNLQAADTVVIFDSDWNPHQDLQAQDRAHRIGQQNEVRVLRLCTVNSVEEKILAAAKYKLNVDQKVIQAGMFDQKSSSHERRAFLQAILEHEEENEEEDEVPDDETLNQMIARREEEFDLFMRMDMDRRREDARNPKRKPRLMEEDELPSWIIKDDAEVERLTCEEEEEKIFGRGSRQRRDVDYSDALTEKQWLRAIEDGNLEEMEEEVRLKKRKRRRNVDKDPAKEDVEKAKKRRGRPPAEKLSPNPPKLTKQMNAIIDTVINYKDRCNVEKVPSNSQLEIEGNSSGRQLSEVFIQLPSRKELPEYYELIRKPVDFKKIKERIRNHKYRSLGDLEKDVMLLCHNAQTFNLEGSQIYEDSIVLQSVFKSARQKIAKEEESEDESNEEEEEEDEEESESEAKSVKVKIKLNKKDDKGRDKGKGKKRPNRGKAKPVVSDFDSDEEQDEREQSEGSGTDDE
UniProt Q96GM5, whole entry, looked up: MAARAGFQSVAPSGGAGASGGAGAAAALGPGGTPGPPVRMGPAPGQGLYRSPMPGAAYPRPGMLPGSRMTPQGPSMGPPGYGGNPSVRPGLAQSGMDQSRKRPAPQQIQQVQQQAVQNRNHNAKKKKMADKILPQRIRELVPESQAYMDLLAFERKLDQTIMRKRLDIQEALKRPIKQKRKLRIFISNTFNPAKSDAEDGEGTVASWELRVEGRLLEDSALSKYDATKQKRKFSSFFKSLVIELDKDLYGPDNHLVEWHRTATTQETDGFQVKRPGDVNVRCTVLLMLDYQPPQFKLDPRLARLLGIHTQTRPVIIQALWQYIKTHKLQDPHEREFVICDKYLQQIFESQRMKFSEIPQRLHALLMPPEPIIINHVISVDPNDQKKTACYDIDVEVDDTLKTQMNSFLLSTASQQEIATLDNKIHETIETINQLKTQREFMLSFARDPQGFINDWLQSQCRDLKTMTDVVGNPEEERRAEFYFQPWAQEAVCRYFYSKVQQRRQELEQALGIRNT
UniProt P0DMW3: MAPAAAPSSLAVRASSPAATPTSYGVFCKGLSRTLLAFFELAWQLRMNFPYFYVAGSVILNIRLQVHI

Experiments:
Test in all cases: log2 fold change, soluble protein after heating vs DMSO (PISA); higher = thermal stabilisation; K562 cells, 10 uM, 30 min; active = over 0.2 and 3.5 SD of the protein, either way, in both replicates (recomputed)
sotrastaurin = compound: CN1CCN(c2nc(C3=C(c4c[nH]c5ccccc45)C(=O)NC3=O)c3ccccc3n2)CC1 [sotrastaurin]
Procedure, shortened: (§1)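 K562 cells at 2×10^6 cells/mL were exposed to 10 μM compound for 30 min, then aliquots were heated for 3 min across 48°C-58°C, pooled, and extracted in PBS containing 0.5% NP-40 at 4°C. The supernatant after 21,000xg for 90 min was taken as soluble protein and measured by TMTpro 16plex LC-MS/MS with channel sums equalised. Thermal stability is reported relative to control samples, with values from duplicates. Fold changes are given on a log2 scale.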

Tubastatin A = compound: CN1CCc2c(c3ccccc3n2Cc2ccc(C(=O)NO)cc2)C1 [Tubastatin A]
Procedure, shortened: as §1

[1] = compound: CNC(=O)C1=CC=CC=C1NC2=NC(=NC=C2Cl)NC3=C(C=C(C=C3)N4CCOCC4)OC
Procedure, shortened: as §1

defactinib = compound: CNC(=O)c1ccc(Nc2ncc(C(F)(F)F)c(NCc3nccnc3N(C)S(C)(=O)=O)n2)cc1 [defactinib]
Procedure, shortened: as §1

[2] = compound: COC(=O)[C@H](CCSC)NC(=O)C1=C(C=C(C=C1)NC[C@H](CS)N)C2=CC=CC=C2
Procedure, shortened: as §1

[3] = compound: COC1=CC=C(C=C1)CN2C=CC3=C2C=C(C=C3)C(=O)NO
Procedure, shortened: as §1

filanesib = compound: CON(C)C(=O)N1N=C(c2cc(F)ccc2F)S[C@@]1(CCCN)c1ccccc1 [filanesib]
Procedure, shortened: as §1

zotarolimus = compound: CO[C@H]1C[C@@H]2CC[C@@H](C)[C@@](O)(O2)C(=O)C(=O)N2CCCC[C@H]2C(=O)O[C@H]([C@H](C)C[C@@H]2CC[C@H](n3cnnn3)[C@H](OC)C2)CC(=O)[C@H](C)/C=C(\C)[C@@H](O)[C@@H](OC)C(=O)[C@H](C)C[C@H](C)/C=C/C=C/C=C/1C [zotarolimus]
Procedure, shortened: as §1

idasanutlin = compound: COc1cc(C(=O)O)ccc1NC(=O)[C@@H]1N[C@@H](CC(C)(C)C)[C@](C#N)(c2ccc(Cl)cc2F)[C@H]1c1cccc(Cl)c1F [idasanutlin]
Procedure, shortened: as §1

alisertib = compound: COc1cc(Nc2ncc3c(n2)-c2ccc(Cl)cc2C(c2c(F)cccc2OC)=NC3)ccc1C(=O)O [alisertib]
Procedure, shortened: as §1

[4] = compound: COc1cc2nc(-c3cc(F)ccc3O)nc(N[C@@H]3CNC[C@H]3C(C)(C)O)c2cc1OC
Procedure, shortened: as §1

gefitinib = compound: COc1cc2ncnc(Nc3ccc(F)c(Cl)c3)c2cc1OCCCN1CCOCC1 [gefitinib]
Procedure, shortened: as §1

[5] = compound: COc1cccc2cc(-c3nc([C@H]4CC[C@H](C(=O)O)CC4)n4ncnc(N)c34)[nH]c12
Procedure, shortened: as §1

lapatinib = compound: CS(=O)(=O)CCNCc1ccc(-c2ccc3ncnc(Nc4ccc(OCc5cccc(F)c5)c(Cl)c4)c3c2)o1 [lapatinib]
Procedure, shortened: as §1

saracatinib = compound: CN1CCN(CCOc2cc(OC3CCOCC3)c3c(Nc4c(Cl)ccc5c4OCO5)ncnc3c2)CC1 [saracatinib]
Procedure, shortened: as §1

[6] = compound: CNc1nc(-c2ccc3c(N)n[nH]c3c2)cc(N2C[C@@H](C(=O)NC3CCCCC3)CC[C@H]2C)n1
Procedure, shortened: as §1

pictilisib = compound: CS(=O)(=O)N1CCN(Cc2cc3nc(-c4cccc5[nH]ncc45)nc(N4CCOCC4)c3s2)CC1 [pictilisib]
Procedure, shortened: as §1

alvocidib = compound: CN1CC[C@H](c2c(O)cc(O)c3c(=O)cc(-c4ccccc4Cl)oc23)[C@H](O)C1 [alvocidib]
Procedure, shortened: as §1

rucaparib = compound: CNCc1ccc(-c2[nH]c3cc(F)cc4c3c2CCNC4=O)cc1 [rucaparib]
Procedure, shortened: as §1

encorafenib = compound: COC(=O)N[C@@H](C)CNc1nccc(-c2cn(C(C)C)nc2-c2cc(Cl)cc(NS(C)(=O)=O)c2F)n1 [encorafenib]
Procedure, shortened: as §1

Measured: log2 fold change

SOX5 (UniProt P35711)
inactive: sotrastaurin -0.014 | Tubastatin A 0.263 | [1] -0.053 | defactinib -0.224 | [2] 0.064 | [3] -0.087 | filanesib -0.08 | zotarolimus -0.058 | idasanutlin 0.006 | alisertib -0.089 | [4] -0.055 | gefitinib -0.012 | [5] 0.105 | lapatinib 0.051

SMPD4 isoform 2 (UniProt Q9NXE4)
inactive: saracatinib 0.028 | Tubastatin A -0.054 | defactinib 0.094 | [6] 0.02 | [2] -0.19 | [3] -0.011 | zotarolimus 0.043 | idasanutlin -0.16 | alisertib -0.117 | [4] -0.308 | [5] 0.003 | lapatinib 0.131 | pictilisib -0.108

SMTN isoform 6 (UniProt P53814)
inactive: sotrastaurin -0.011 | Tubastatin A 0.014 | [1] -0.158 | defactinib 0.097 | [2] -0.005 | filanesib -0.416 | [4] 0.009 | lapatinib 0.007

SMARCD2 (UniProt Q92925)
inactive: alvocidib -0.4 | Tubastatin A 0.128 | [1] -0.185 | rucaparib 0.328 | encorafenib 0.323 | [3] 0.16 | zotarolimus 0.064 | idasanutlin 0.263 | alisertib -0.09 | [4] -0.072 | [5] 0.143 | lapatinib 0.16 | pictilisib 0.052

SP4 (UniProt Q02446)
inactive: Tubastatin A 0.015 | rucaparib 0.026 | encorafenib -0.013 | [3] 0.033 | gefitinib -0.218 | pictilisib -0.281

SPAG9 isoform 4 (UniProt O60271)
inactive: sotrastaurin -0.171 | Tubastatin A -0.103 | [1] 0.081 | defactinib 0.018 | rucaparib 0.113 | encorafenib 0.022 | [2] 0.088 | [3] -0.02 | filanesib 0.078 | zotarolimus -0.076 | idasanutlin -0.006 | alisertib 0.062 | gefitinib -0.007 | [5] -0.112

SLX4IP (UniProt Q5VYV7)
inactive: [4] 0.046 | lapatinib 0.26

SLCO4A1 (UniProt Q96BD0)
inactive: sotrastaurin 0.066 | alvocidib -0.107 | Tubastatin A -0.069 | [1] 0.091 | defactinib -0.169 | rucaparib -0.124 | encorafenib 0.211 | [2] 0.042 | [3] -0.192 | filanesib -0.011 | zotarolimus -0.005 | idasanutlin -0.089 | alisertib -0.148 | [4] 0.035 | gefitinib 0.227 | [5] -0.199 | lapatinib -0.066 | pictilisib 0.028

SNX18 (UniProt Q96RF0)
inactive: sotrastaurin 0.089 | [1] -0.017 | [3] -0.193 | filanesib -0.272

Quoted from above (two entries):
SMARCD2 (UniProt Q92925)
inactive: alvocidib -0.4 | Tubastatin A 0.128 | [1] -0.185 | rucaparib 0.328 | encorafenib 0.323 | [3] 0.16 | zotarolimus 0.064 | idasanutlin 0.263 | alisertib -0.09 | [4] -0.072 | [5] 0.143 | lapatinib 0.16 | pictilisib 0.052

SP4 (UniProt Q02446)
inactive: Tubastatin A 0.015 | rucaparib 0.026 | encorafenib -0.013 | [3] 0.033 | gefitinib -0.218 | pictilisib -0.281

More results follow:

SMU1 isoform 2 (UniProt Q2TAY7)
inactive: rucaparib -0.184 | encorafenib -0.265 | [3] 0.497

SNAP47 (UniProt Q5SQN1)
inactive: [1] -0.063 | defactinib -0.044 | [2] -0.145

SORBS3 (UniProt O60504)
inactive: [1] 0.014 | gefitinib 0.119 | pictilisib -0.052

SOX6 (UniProt P35712)
inactive: alvocidib -0.107 | defactinib 0.059 | [2] 0.029 | zotarolimus 0.092 | alisertib 0.045 | [4] -0.12 | [5] 0.092 | lapatinib -0.015

SMIM19 (UniProt Q96E16)
inactive: saracatinib -0.07 | Tubastatin A -0.019 | defactinib -0.087 | rucaparib -0.301 | [6] -0.136 | encorafenib -0.238 | [2] 0.142 | idasanutlin -0.06 | [4] -0.126 | lapatinib 0.031

SLC9A6 isoform 3 (UniProt Q92581)
inactive: saracatinib 0.128 | Tubastatin A 0.04 | [1] 0.104 | rucaparib 0.165 | [6] -0.107 | encorafenib -0.162 | zotarolimus -0.051 | idasanutlin 0.098 | [4] 0.055 | lapatinib -0.072

SOS1 (UniProt Q07889)
inactive: sotrastaurin -0.168 | Tubastatin A 0.095 | [1] 0.014 | rucaparib -0.139 | encorafenib -0.005 | [3] 0.094 | filanesib 0.172 | idasanutlin 0.027 | alisertib -0.101 | gefitinib -0.146 | [5] 0.115

SMIM11A (UniProt P58511)
inactive: [3] -0.131 | gefitinib -0.153

SLC9B2 (UniProt Q86UD5)
inactive: defactinib 0.239 | [2] 0.016

SMARCA2 (UniProt P51531)
inactive: [1] 0.002 | rucaparib -0.03 | encorafenib -0.106 | idasanutlin -0.137 | alisertib -0.003 | gefitinib 0.023 | [5] 0.036 | pictilisib 0

SLPI (UniProt P03973)
inactive: [3] 1.64

SMARCD1 (UniProt Q96GM5)
inactive: [1] -0.087 | alisertib 0.046 | [5] 0.084

SMIM13 (UniProt P0DJ93)
inactive: sotrastaurin 0.157 | rucaparib 0.02 | encorafenib -0.083 | filanesib 0.337 | alisertib 0.012 | [4] -0.063 | gefitinib -0.018 | [5] 0.061 | lapatinib -0.086

SNX30 (UniProt Q5VWJ9)
inactive: sotrastaurin 0.047 | filanesib 0.152

SMPDL3A (UniProt Q92484)
inactive: saracatinib -0.175 | Tubastatin A -0.242 | [6] -0.106

SNIP1 (UniProt Q8TAD8)
inactive: pictilisib -0.128

SNX19 (UniProt Q92543)
inactive: sotrastaurin -0.149 | [1] 0.163 | rucaparib 0.075 | encorafenib 0.027 | [3] 0.125 | filanesib 0.031 | [4] 0.064 | lapatinib 0.089

SMUG1 (UniProt Q53HV7)
inactive: sotrastaurin -0.098 | rucaparib 0.047 | encorafenib 0.163 | filanesib 0.03 | alisertib -0.151 | gefitinib 0.086 | [5] 0.077

SMR3B (UniProt P02814)
inactive: gefitinib 0.084

SMIM10L1 (UniProt P0DMW3)
inactive: [1] 0.097
